Data as given in PubChem BioAssay AID743121 (NCATS, 2013)

Screen: 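Knock-downs that sensitise breast cancer cells to camptothecin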 (primary screen)
System: MDA-MB-231 cells, a human breast cancer line
Reagents: single siRNA against human genes, 20 nM siRNA (0.8 pmol per well)
Time to read-out: 120 h (drug added 48 h after transfection, read 72 h later)
Conditions: camptothecin 20 nM (about EC30) for 72 h; vehicle 0.1% DMSO in parallel plates
Measured: 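CellTiter-Glo ATP signal, scaled to control siRNA as percent viability; sensitisation given as log2 of untreated divided by camptothecin-treated viability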
Reading the numbers: log2 vehicle/camptothecin viability: higher = stronger sensitisation to camptothecin; viability with camptothecin: higher = more viable cells
Units: viability with camptothecin in % of control
Active means: 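Active genes have an RSA gene-level p-value below 0.001, computed from the ratios of their separate siRNAs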
This is one part, drawn at random, of about 26,000 deposited reagents. Of all reagents, 167 (0.63%) are marked active. 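Calls are per gene from RSA p-values that are not deposited; an individual active-marked siRNA can sensitise only weakly.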 Unmarked entries are inactive. Reagents against one gene are numbered here. Not all columns of the deposit are shown. Reagent sequences are not shown.

UBL4B (GeneID 164153) #1 gave log2 vehicle/camptothecin viability -0.347; viability with camptothecin 82.
UBL4B (GeneID 164153) #2 gave log2 vehicle/camptothecin viability -0.164; viability with camptothecin 101.
UBL4B (GeneID 164153) #3 scored log2 vehicle/camptothecin viability 0.00454; viability with camptothecin 78.5.
ANGPTL6 (GeneID 83854) #1 scored log2 vehicle/camptothecin viability 0.19; viability with camptothecin 80.6.
With knock-down of ANGPTL6 (GeneID 83854) #2, the screen gave log2 vehicle/camptothecin viability -0.0813; viability with camptothecin 30.4.
Depletion of ANGPTL6 (GeneID 83854) #3 gave: log2 vehicle/camptothecin viability -0.119; viability with camptothecin 23.7.
With knock-down of ANGPTL6 (GeneID 83854) #4 the results were log2 vehicle/camptothecin viability 0.018; viability with camptothecin 80.
Depletion of GFRA2 (GeneID 2675) #1 resulted in: log2 vehicle/camptothecin viability -0.0546; viability with camptothecin 83.9.
Against GFRA2 (GeneID 2675) #2, the entry reads log2 vehicle/camptothecin viability -0.104; viability with camptothecin 70.8.
For GFRA2 (GeneID 2675) #3, the values are log2 vehicle/camptothecin viability -0.288; viability with camptothecin 92.3.
Against GFRA2 (GeneID 2675) #4 the deposit lists log2 vehicle/camptothecin viability -0.098; viability with camptothecin 85.9.
After knock-down of UBA7 (GeneID 7318) #1, the record shows log2 vehicle/camptothecin viability -0.0829; viability with camptothecin 99.3.
UBA7 (GeneID 7318) #2 scored log2 vehicle/camptothecin viability 0.0154; viability with camptothecin 29.9.
For UBA7 (GeneID 7318) #3, the entry reads log2 vehicle/camptothecin viability 0.0541; viability with camptothecin 110.

Laid out differently: results already given.
Gene	siRNA no.	log2 vehicle/camptothecin viability	viability with camptothecin
ANGPTL6 (GeneID 83854)	2	-0.0813	30.4
ANGPTL6 (GeneID 83854)	3	-0.119	23.7
